The whole screen tested about 53,000 sequences, of which about 3,700 (7%) were called active.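 The calls were made as follows: active = gene knockdowns whose robust z-score for IL-1 alpha signal is at least 2 or at most -2, so actives lie on both sides; inactive = the rest.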 The list shows a part of the results.
assay: Components of the Cytosolic LPS Sensing Pathway: Gene Identification via Genome-wide siRNA Screen; details: RAW264.7 macrophages, IL-1a HTRF, actives lie on both sides, screened at 100 nM (by protocol), cells primed 5 h with Pam3CSK4 first;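 also: robust z of the log signal after scaling to non-targeting control siRNA wells of the plate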
Summary of the method: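 RAW264.7; siRNA 100 nM final, RNAiMAX, 48h 37 degrees C; Pam3CSK4 5 h; LipidA + TransIT-TKO 24 h; IL-1a HTRF; CellTiter-Glo viability; robust z vs negative-control median.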

| Sequence | z-score |
| --- | --- |
| CCAACAUCUCUGUAUACUGTT against Olfr8 | inactive: 0.178 |
| GGUAAUUUGUAAGGAACCCTT against Rpusd2 | inactive: -0.881 |
| GGAAUAUCUUCUCAAGUCUTT against Zfp418 | inactive: 0.854 |
| GGUUUGUGGGCUUUCACACTT against Pdxp | inactive: -0.123 |
| GGCCAACCCAGAGAGUACUTT against Cdc73 | inactive: 0.854 |
| CCUUUGAAAAAGCUUGCCATT against Tor1aip2 | inactive: 0.0385 |
| GAAGUCCUGAAGAAGCUCATT against Cartpt | inactive: -1.01 |
| GGAGACAGUGAGACAGAUATT against Ncoa3 | inactive: 1.14 |
| GCAGGACAGCAGGAAAAGUTT against 2610028H24Rik | inactive: -0.928 |
| CCUGACUAUCUGAAAGCUATT against Sod2 | inactive: -0.49 |
| ACGCAAGUCACCAUCUUCUTT against Tas2r118 | inactive: -0.823 |
| GGAUGUAAAAUGCAGUUUATT against Tmsb4x | inactive: 0.855 |
| CGACACUGAGCUAAGAGAUTT against Vps36 | inactive: -0.853 |
| GCUUUUGAUCUGGAGACCCTT against Klhdc8b | inactive: -0.358 |
| GCUCUACUGCUUCCUUGUUTT against Olfr229 | inactive: -0.338 |
| GCAGAUAAUUUUAACCCUCTT against Inpp5b | inactive: 0.641 |
| CCAACAUCUAGAGAGUCUGTT against Olfr1031 | inactive: -1.36 |
| GCCCAACAAAAAGUUGAUUTT against Vrk2 | inactive: 0.627 |
| GCACACAUCAAGAAACUUGTT against Mxi1 | inactive: 0.963 |
| GGUGUCAAAAGUUUUCUAGTT against Tcf23 | inactive: 0.154 |
| CCAUCUCUCCAAAGGGCUGTT against Olfr32 | inactive: 0.056 |
| GCGAUGCUACUGAAAGCGATT against Catsper2 | inactive: 0.232 |

Exported tab-delimited: entries from further up.
Sequence	z-score
GGUAAUUUGUAAGGAACCCTT against Rpusd2	inactive: -0.881
GGAAUAUCUUCUCAAGUCUTT against Zfp418	inactive: 0.854
GGUUUGUGGGCUUUCACACTT against Pdxp	inactive: -0.123

Continuation:

| Sequence | z-score |
| --- | --- |
| GGGCAUUAAGACAAAGAGUTT against Fam3c | inactive: 0.769 |
| GGAACACAAAAGCAAAGAUTT against Prpf38b | active: 2.2 |
| GGCUUUCAUCGUUUUUGCCTT against Rbm12 | inactive: -0.504 |
| GCCUACAACUACUGAAACCTT against Ifne | inactive: 0.295 |
| GGAAGACUUUGGCUUUGAATT against Tfpt | inactive: -0.165 |
| CCAUUUAAACUAGAUCCCATT against Mid2 | inactive: 0.937 |
| GCUUUUCGGAGCUCUAUAUTT against Sipa1 | active: -2.23 |
| CGGAACAUGGAGUUUAAGCTT against Slfnl1 | active: 2.3 |
| CCAAACACAGUUGCACAGGTT against Atg4a | inactive: 1.22 |
| GGAACAUUUCAACCGCCUGTT against Epop | inactive: 0.223 |
| GGAUCAUUGACAGUGAAUATT against Blk | inactive: -1.35 |
| GCACUUUCGAGUGGAUGAATT against Hoxd1 | inactive: -1.05 |
| GGAGAAUUUGAAGCAACCUTT against Med14 | inactive: -0.395 |
| GGGCAUCCGAAUUGACUCATT against Cnpy2 | inactive: -0.421 |
| GGCCCAAGGAUCAAUUUAUTT against Zup1 | inactive: 0.914 |
| GGGUUAAGAAAACUAGUGGTT against Nnat | inactive: -0.777 |
| GGUGUCUGGUUCAUAAAGGTT against Lcn4 | inactive: -0.344 |
| GGCUCUGUAAAGUUCGAGGTT against Kcnip1 | inactive: -0.376 |
| GGACAUGAUAACAUGGAUATT against Ubr1 | inactive: 0.628 |
| GGCUUUAAAGAAUGAUUCATT against Cfap97 | inactive: 0.197 |
| GGAAAGCUUCUGAGUAAUGTT against Tfg | inactive: 0.225 |
| GUCACAGUACCCAAAAUGUTT against Olfr979 | active: -2.42 |

Two entries drawn at random from the list so far, as already listed:

| Sequence | z-score |
| --- | --- |
| GGUUUGUGGGCUUUCACACTT against Pdxp | inactive: -0.123 |
| GCCUACAACUACUGAAACCTT against Ifne | inactive: 0.295 |

(cont.)

| Sequence | z-score |
| --- | --- |
| GCUCUUUAGACCAGGACAGTT against Olfr103 | inactive: 0.332 |
| GGACAGUUGGCUUCCUUCATT against Adamts6 | inactive: -1.82 |
| CCCAUUUAGGUUUUUCCUATT against Pde6d | inactive: 0.29 |
| GGAAGAGAGCUGUCAGUGATT against Pth | inactive: 0.0839 |
| CCAGGAUUAUCACAGUGUCTT against Commd8 | inactive: -0.245 |
| CCUCUUAGAUAGCACAUUATT against Epx | inactive: -0.861 |
| GCUUCUGAUUAACCUCCAGTT against Olfr1390 | inactive: -1.49 |
| GGGUGUGUAUCUUACUAGUTT against Olfr791 | inactive: 0.14 |
| GGAUGCUCUAACAGGAAGCTT against Slc26a1 | inactive: 0.525 |
| GGCUUGAGACUUAAAACGGTT against Lztfl1 | inactive: 0.583 |
| GGUAUUCUAAGAAGUCUUATT against Lmcd1 | inactive: 0.508 |
| GGCUCAUUGAGCACAUCAGTT against Ikzf5 | inactive: 0.253 |
| UCAGUCGCAUCUCCAAAAATT against Olfr340 | inactive: 0.727 |
| GGAGAGAGAUGAAAUUUGATT against Kif26b | inactive: 1.79 |
| GGAAGCAAGGAAAAUCAUGTT against Lpo | inactive: -0.289 |
| CGUAAGUCAGUGAUGCUAUTT against Srp19 | inactive: 1.38 |
| GCCUUAUUUGAAAUACAGATT against Zbtb10 | inactive: 1.07 |
| GCAGAAUUGAGUCACCCAATT against Sp1 | active: -2.56 |
| GGAAACUUGUUGAAGAGAUTT against Ptprz1 | active: 2.37 |
| GCCACAAUGUCCAAAAUUATT against Rab6a | inactive: -0.271 |
| GGACACCAUGUGCUAGAGCTT against L1cam | inactive: -0.286 |
| GGAUUUUGUGGAUCCAUGGTT against Wars | inactive: -1.2 |

| Sequence | z-score |
| --- | --- |
| GGCCUCCUAACAAUUCAGCTT against Foxp1 | inactive: 0.0693 |
| GGAUAACCUUGAGUAGGUGTT against Olfr906 | inactive: 0.484 |
| GGGAUCCCUUCUGGAAAAGTT against Dmrtc2 | inactive: 0.581 |
| GUCACUCUUUUUUAUGGAATT against Olfr485 | inactive: -1.48 |
| GCCACAUGUCAAACAAGAUTT against Tacc1 | inactive: -1.41 |
| GGCAAGCAGUCCAUAUUGUTT against Mapkap1 | inactive: -0.703 |
| GCGGAAAAAUUACUUUCUUTT against Tas2r107 | inactive: -2 |
| GGACUUCUACCCAGCGAUATT against P3h4 | inactive: -0.536 |
| GCCUCAGUGUCUGUUGGAATT against Tmem94 | inactive: 1.23 |
| GGAUAUGAUCAACGAAGUGTT against Calm1 | inactive: -0.155 |
| CCUAAAUCCUGCUAGGCGUTT against Cbln1 | inactive: -1.03 |
| GGAACCUCAUGUCUCACCUTT against Vegfb | inactive: -0.661 |
| AUCAGUUUCCCUGAAAAGGTT against Pnma1 | inactive: 0.457 |
| GCUUAGACGACUAGACCUGTT against Slit2 | inactive: -0.186 |
| GGGUUUCAAAAACAAACCATT against Phtf1 | inactive: 0.378 |
| GGUUUCCAUCUGAAUAAAATT against Pgap6 | inactive: 0.279 |
| GGGCUUCUUCCUCGUCUCUTT against Ido1 | inactive: -0.949 |
| GGUUUUUAACUCAAUGUAGTT against Midn | inactive: -0.785 |
| CCGACAGACUCACAUACUGTT against Trex1 | inactive: -0.942 |
| GGGAAGAGUGAGGAUACGGTT against Mrps34 | inactive: -0.415 |
| GGCACUGAAUUCAGUGGCUTT against Slc22a19 | inactive: 0.331 |
| CCUAAUGCAGUCCAGAUGGTT against Ccdc116 | inactive: -0.641 |

| Sequence | z-score |
| --- | --- |
| GGUACAUGGCCAUUGUCCATT against Tacr2 | inactive: -0.584 |
| GGAAUGAAGCCUGAACAGATT against Strc | inactive: 0.151 |
| GGUUUUCAGCUAUCCUUGUTT against Tmem80 | inactive: -0.888 |
| GGACACAACAAGUCUUAUGTT against Prg2 | inactive: -0.876 |
| GCAGGUACUAAGGUUCCUGTT against Apobec3 | inactive: 1.04 |
| GGAUUUGAAACAGAAAGAATT against Pde7a | inactive: -1.03 |
| CCUUAAGCACCAUAAAUUATT against Kifbp | inactive: 1.92 |
| GGGAGUUAGAUCUGUAUAATT against Ccdc172 | inactive: 0.478 |
| GGAGUCAUCGAGUUUCGAGTT against Trem2 | inactive: 1.07 |
| GGCUCGGACCAAAAAAAUUTT against Msantd3 | inactive: -1.33 |
| GCACAAUUUUAUAACUCGGTT against Lrrc49 | inactive: 0.457 |
| GGGAAAGGACAAAAAAAAATT against Rnf41 | inactive: -1.08 |
| GGGACUUUUAAACUUGAACTT against Ube2n | inactive: 0.434 |
| GGCUGUCUUGAUUUUGAUUTT against C3ar1 | inactive: 0.296 |
| GGACAAGCAACGUAUGUUCTT against Cenpq | inactive: 0.164 |
| GCGGAAGUCGAAUCUGUCUTT against Aga | inactive: -1.45 |
| GCUGAACAAUUUUCAACAATT against Sclt1 | inactive: -0.958 |
| GCCUGUUACGUCAUCAAGATT against Gkn2 | inactive: 0.638 |
| GGAGAACAAGAUCUUACAGTT against Cby2 | inactive: -0.703 |

Laid out differently: entries from further up
GGUACAUGGCCAUUGUCCATT against Tacr2
  z-score: inactive: -0.584
GGAAUGAAGCCUGAACAGATT against Strc
  z-score: inactive: 0.151
GGUUUUCAGCUAUCCUUGUTT against Tmem80
  z-score: inactive: -0.888
GGACACAACAAGUCUUAUGTT against Prg2
  z-score: inactive: -0.876
